Consider one molecule from publication PMC5698275.

These are yes or no findings as the source states them, for the method shown. Some results given as binding are weak or reduced against the parent protein; the word gives no strength.

The target of test [1] is T1, S100A8 protein (mouse (endogenous in bone marrow Gr1+CD11b+ cells)) (UniProt P27005).
T1 sequence: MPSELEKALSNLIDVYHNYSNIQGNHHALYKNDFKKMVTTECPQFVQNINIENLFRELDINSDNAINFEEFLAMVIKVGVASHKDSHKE
Nature of the test: condition: only in Gr1+CD11b+ cells from late septic mice; native gel or EMSA; lysate of bone marrow Gr1+CD11b+ cells from late septic mice (days 6-28 after CLP) resolved under non-denaturing conditions; immunoblot with anti-S100A8/A9 heterodimer antibody. In general terms: Mobility shift assays separate free from complexed probe on a gel.

Test [2] concerns the target T1, S100A8 protein (mouse (endogenous in bone marrow Gr1+CD11b+ cells)). In words: native gel or EMSA; lysate of bone marrow Gr1+CD11b+ cells from early septic mice (days 1-5 after CLP) resolved under non-denaturing conditions; immunoblot with anti-S100A8/A9 heterodimer antibody; band of ~24 kDa.

B1: S100A9 protein (protein, UniProt P31725 1-113)
chain: MANKAPSQMERSITTIIDTFHQYSRKEGHPDTLSKKEFRQMVEAQLATFMKKEKRNEALINDIMEDLDTNQDNQLSFEECMMLMAKLIFACHEKLHENNPRGHGHSHGKGCGK
Take B1: the binding result in test [1] is “no binding”; in test [2] it was “binds”.
